Test results: patent US20100113339A1
These are yes or no findings as the source states them, for the method shown. Some results given as binding are weak or reduced against the parent protein; the word gives no strength.

Target: mouse serum albumin (mouse), P07724
Test: SPR Biacore 3000, albumin on CM5 chip, one nanobody concentration; ranked by koff, position 7 of 7, class D
Details: remark: other sources report otherwise

B1: PMP6G7 (VHH)
VHH: QVQLVESGGGLVQPGGSLRLSCAASGFTFSNYWMYWVRVAPGKGLERISRDISTGGGYSYYADSVKGRFTISRDNAKNTLYLQMNSLKPEDTALYYCAKDREAQVDTLDFDYRGQGTQVTVSS
binding: binds
